Laboratory results: ChEMBL document CHEMBL1149390, “Potent CYP19 (aromatase) 1-[(benzofuran-2-yl)(phenylmethyl)pyridine, -imidazole, and -triazole inhibitors: synthesis and biological evaluation” (J Med Chem, 2006)

Target: T1, Aromatase (Homo sapiens, UniProt P11511)
T1 sequence (P11511 whole entry): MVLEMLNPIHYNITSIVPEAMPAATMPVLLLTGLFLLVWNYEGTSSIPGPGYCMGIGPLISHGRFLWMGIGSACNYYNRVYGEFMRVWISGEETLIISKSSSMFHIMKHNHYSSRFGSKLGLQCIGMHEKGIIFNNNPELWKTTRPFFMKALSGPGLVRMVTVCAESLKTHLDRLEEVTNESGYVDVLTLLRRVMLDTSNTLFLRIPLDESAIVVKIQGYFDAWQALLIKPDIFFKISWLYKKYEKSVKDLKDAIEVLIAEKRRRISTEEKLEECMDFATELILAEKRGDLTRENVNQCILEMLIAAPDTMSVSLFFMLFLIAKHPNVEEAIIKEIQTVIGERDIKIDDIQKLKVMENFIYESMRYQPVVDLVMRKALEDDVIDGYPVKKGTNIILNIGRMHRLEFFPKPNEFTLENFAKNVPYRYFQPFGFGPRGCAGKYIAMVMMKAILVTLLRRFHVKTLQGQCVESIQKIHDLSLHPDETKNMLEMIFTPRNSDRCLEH
Experiment: in vitro

SMILES: CC(C)(C#N)c1cc(Cn2cncn2)cc(C(C)(C)C#N)c1 [ANASTROZOLE]
- selectivity ratio: > 333
